Experimental data as given in the supplement of paper PMC8728848.
The other results are listed elsewhere or left out.

Tests used:
Assay in all cases: glycan array binding signal (z-score within array); higher = stronger binding
Details in all cases: glycan notation: IUPAC condensed, linker removed; mutation: Y54A
[1] = target: Fuc(a1-2)Gal
In short: (§1)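 Glycan array data were curated from 3228 arrays in the Consortium for Functional Glycomics database and kept only where the protein sequence was available. Glycan names were converted to IUPAC-condensed notation, and columns mapping to the same glycan were averaged. The binding signal is a within-array Z-score, averaged across arrays of the same protein sequence at different concentrations or buffers and across linkers. Negative Z-scores can be read as non-binding.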

[2] = target: Fuc(a1-2)Gal(b1-3)GalNAc
In short: as §1

[3] = target: Fuc(a1-2)Gal(b1-3)GalNAc(a1-3)[Fuc(a1-2)]Gal(b1-4)Glc
In short: as §1

[4] = target: Fuc(a1-2)Gal(b1-3)GalNAc(a1-3)[Fuc(a1-2)]Gal(b1-4)GlcNAc
In short: as §1

[5] = target: Fuc(a1-2)Gal(b1-3)GalNAc(b1-3)Gal
In short: as §1

[6] = target: Fuc(a1-2)Gal(b1-3)GalNAc(b1-3)Gal(a1-4)Gal(b1-4)Glc
In short: as §1

[7] = target: Fuc(a1-2)Gal(b1-3)GalNAc(b1-4)[Neu5Ac(a2-3)]Gal(b1-4)Glc
In short: as §1

[8] = target: Fuc(a1-2)Gal(b1-3)GlcNAc
In short: as §1

[9] = target: Fuc(a1-2)Gal(b1-3)GlcNAc(b1-2)Man(a1-3)[Fuc(a1-2)Gal(b1-3)GlcNAc(b1-2)Man(a1-6)]Man(b1-4)GlcNAc(b1-4)GlcNAc
In short: as §1

[10] = target: Fuc(a1-2)Gal(b1-3)GlcNAc(b1-2)Man(a1-3)[Fuc(a1-2)Gal(b1-3)GlcNAc(b1-2)Man(a1-6)]Man(b1-4)GlcNAc(b1-4)[Fuc(a1-6)]GlcNAc
In short: as §1

[11] = target: Fuc(a1-2)Gal(b1-3)GlcNAc(b1-3)Gal(b1-4)Glc
In short: as §1

[12] = target: Fuc(a1-2)Gal(b1-3)GlcNAc(b1-3)GalNAc
In short: as §1

[13] = target: Fuc(a1-2)Gal(b1-3)GlcNAc(b1-3)[Fuc(a1-2)Gal(b1-3)GlcNAc(b1-6)]GalNAc
In short: as §1

[14] = target: Fuc(a1-2)Gal(b1-3)GlcNAc(b1-3)[Gal(b1-4)GlcNAc(b1-6)]Gal(b1-4)Glc
In short: as §1

[15] = target: Fuc(a1-2)Gal(b1-3)GlcNAc(b1-3)[Neu5Ac(a2-6)Gal(b1-4)GlcNAc(b1-6)]Gal(b1-4)Glc
In short: as §1

[16] = target: Fuc(a1-2)Gal(b1-3)GlcNAc6S
In short: as §1

[17] = target: Fuc(a1-2)Gal(b1-3)[Fuc(a1-4)]GlcNAc
In short: as §1

[18] = target: Fuc(a1-2)Gal(b1-3)[Fuc(a1-4)]GlcNAc(b1-2)Man(a1-3)[Fuc(a1-2)Gal(b1-3)[Fuc(a1-4)]GlcNAc(b1-2)Man(a1-3)]Man(b1-4)GlcNAc(b1-4)GlcNAc
In short: as §1

[19] = target: Fuc(a1-2)Gal(b1-3)[Fuc(a1-4)]GlcNAc(b1-2)Man(a1-3)[Fuc(a1-2)Gal(b1-3)[Fuc(a1-4)]GlcNAc(b1-2)Man(a1-6)]Man(b1-4)GlcNAc(b1-4)[Fuc(a1-6)]GlcNAc(b1-4)[Fuc(a1-6)]GlcNAc
In short: as §1

[20] = target: Fuc(a1-2)Gal(b1-3)[Fuc(a1-4)]GlcNAc(b1-3)[Fuc(a1-3)[Gal(b1-4)]GlcNAc(b1-6)]Gal(b1-4)Glc
In short: as §1

[21] = target: Fuc(a1-2)Gal(b1-3)[Fuc(a1-4)]GlcNAc(b1-3)[Gal(b1-4)GlcNAc(b1-6)]Gal(b1-4)Glc
In short: as §1

[22] = target: Fuc(a1-2)Gal(b1-4)Fuc(a1-3)]GlcNAc(b1-2)Man(a1-3)[Fuc(a1-2)Gal(b1-4)[Fuc(a1-3)]GlcNAc(b1-2)Man(a1-6)]Man(b1-4)GlcNAc(b1-4)GlcNAc
In short: as §1

[23] = target: Fuc(a1-2)Gal(b1-4)Glc
In short: as §1

[24] = target: Fuc(a1-2)Gal(b1-4)Glc6S
In short: as §1

[25] = target: Fuc(a1-2)Gal(b1-4)GlcNAc
In short: as §1

[26] = target: Fuc(a1-2)Gal(b1-4)GlcNAc(b1-2)Man
In short: as §1

[27] = target: Fuc(a1-2)Gal(b1-4)GlcNAc(b1-2)Man(a1-3)[Fuc(a1-2)Gal(b1-4)GlcNAc(b1-2)Man(a1-6)]Man(b1-4)GlcNAc(b1-4)GlcNAc
In short: as §1

[28] = target: Fuc(a1-2)Gal(b1-4)GlcNAc(b1-2)Man(a1-3)[Fuc(a1-2)Gal(b1-4)GlcNAc(b1-2)Man(a1-6)]Man(b1-4)GlcNAc(b1-4)[Fuc(a1-6)]GlcNAc
In short: as §1

[29] = target: Fuc(a1-2)Gal(b1-4)GlcNAc(b1-2)[Fuc(a1-2)Gal(b1-4)GlcNAc(b1-4)]Man(a1-3)[Fuc(a1-2)Gal(b1-4)GlcNAc(b1-2)Man(a1-6)]Man(b1-4)GlcNAc(b1-4)GlcNAc
In short: as §1

[30] = target: Fuc(a1-2)Gal(b1-4)GlcNAc(b1-3)Gal(b1-4)GlcNAc
In short: as §1

[31] = target: Fuc(a1-2)Gal(b1-4)GlcNAc(b1-3)Gal(b1-4)GlcNAc(b1-2)Man(a1-3)[Fuc(a1-2)Gal(b1-4)GlcNAc(b1-3)Gal(b1-4)GlcNAc(b1-2)Man(a1-6)]Man(b1-4)GlcNAc(b1-4)GlcNAc
In short: as §1

[32] = target: Fuc(a1-2)Gal(b1-4)GlcNAc(b1-3)Gal(b1-4)GlcNAc(b1-3)Gal(b1-4)GlcNAc
In short: as §1

[33] = target: Fuc(a1-2)Gal(b1-4)GlcNAc(b1-3)GalNAc
In short: as §1

[34] = target: Fuc(a1-2)Gal(b1-4)GlcNAc(b1-3)[Fuc(a1-2)Gal(b1-4)GlcNAc(b1-6)]GalNAc
In short: as §1

[35] = target: Fuc(a1-2)Gal(b1-4)GlcNAc(b1-3)[Fuc(a1-3)[Gal(b1-4)]GlcNAc(b1-6)]Gal(b1-4)Glc
In short: as §1

[36] = target: Fuc(a1-2)Gal(b1-4)GlcNAc(b1-6)GalNAc
In short: as §1

[37] = target: Fuc(a1-2)Gal(b1-4)GlcNAc6S
In short: as §1

B1: CBP21 (Serratia marcescens), O83009 (protein)
chain: MNKTSRTLLSLGLLSAAMFGVSQQANAHGYVESPASRAYQCKLQLNTQCGSVQAEPQSVEGLKGFPQAGPADGHIASADKSTFFELDQQTPTRWNKLNLKTGPNSFTWKLTARHSTTSWRYFITKPNWDASQPLTRASFDLTPFCQFNDGGAIPAAQVTHQCNIPADRSGSHVILAVWDIADTANAFYQAIDVNLSK
[1]
  glycan array binding signal (z-score): 0.247
[2]
  glycan array binding signal (z-score): 0.188
[3]
  glycan array binding signal (z-score): 1.32
[4]
  glycan array binding signal (z-score): -0.488
[5]
  glycan array binding signal (z-score): -0.538
[6]
  glycan array binding signal (z-score): 0.046
[7]
  glycan array binding signal (z-score): 0.437
[8]
  glycan array binding signal (z-score): -0.702
[9]
  glycan array binding signal (z-score): -0.854
[10]
  glycan array binding signal (z-score): -0.985
[11]
  glycan array binding signal (z-score): -0.307
[12]
  glycan array binding signal (z-score): 0.028
[13]
  glycan array binding signal (z-score): -0.514
[14]
  glycan array binding signal (z-score): -0.46
[15]
  glycan array binding signal (z-score): -0.286
[16]
  glycan array binding signal (z-score): -0.608
[17]
  glycan array binding signal (z-score): -0.275
[18]
  glycan array binding signal (z-score): 0.767
[19]
  glycan array binding signal (z-score): 0.129
[20]
  glycan array binding signal (z-score): -1.36
[21]
  glycan array binding signal (z-score): -0.05
[22]
  glycan array binding signal (z-score): -0.103
[23]
  glycan array binding signal (z-score): -0.911
[24]
  glycan array binding signal (z-score): 0.01
[25]
  glycan array binding signal (z-score): 0.658
[26]
  glycan array binding signal (z-score): -0.872
[27]
  glycan array binding signal (z-score): -1.03
[28]
  glycan array binding signal (z-score): 0.284
[29]
  glycan array binding signal (z-score): -0.609
[30]
  glycan array binding signal (z-score): 0.799
[31]
  glycan array binding signal (z-score): 2.34
[32]
  glycan array binding signal (z-score): 1.57
[33]
  glycan array binding signal (z-score): -0.464
[34]
  glycan array binding signal (z-score): 0.381
[35]
  glycan array binding signal (z-score): -0.407
[36]
  glycan array binding signal (z-score): 2.05
[37]
  glycan array binding signal (z-score): -0.485
